Data as given in PubChem BioAssay AID1159584 (Peter MacCallum Cancer Centre, 2016)

- Screen: 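Knock-downs that harm CDH1-null cells more than parental MCF10A cells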 (primary screen)
- Cell system: human MCF10A breast epithelial cells, parental and CDH1-null
- Reagents: siRNA against human genes
- Read-out: 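ATP luminescence (CellTiter-Glo) viability per line relative to mean mock wells over all plates, and the ratio of CDH1-null to parental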
- Direction: CDH1-null / parental viability ratio: higher = CDH1-null cells survive relatively better than parental; CDH1-null viability vs mock: higher = more viable CDH1-null cells; parental viability vs mock: higher = more viable parental cells
Here is an unselected part of about 18,000 deposited reagents. Not stated in the record: the amount of reagent, the time to read-out.

target,CDH1-null / parental viability ratio,CDH1-null viability vs mock (fraction of mock),parental viability vs mock (fraction of mock)
ADAMTS20 (GeneID 80070),1.14,0.92,0.81
BMP15 (GeneID 9210),0.94,0.5,0.53
FAM20C (GeneID 56975),1.48,0.92,0.62
WSCD2 (GeneID 9671),0.83,0.7,0.84
CWC25 (GeneID 54883),0.99,0.76,0.77
GART (GeneID 2618),1.09,0.74,0.68
DENND6A (GeneID 201627),1.1,0.91,0.83
PPIL1 (GeneID 51645),1.3,0.78,0.6
DBF4 (GeneID 10926),0.97,0.72,0.74
KCNN2 (GeneID 3781),1.24,1.04,0.84
SAP30BP (GeneID 29115),0.98,0.62,0.63
MYL11 (GeneID 29895),1.56,0.61,0.39
MFSD2B (GeneID 388931),0.94,0.76,0.81
AGMO (GeneID 392636),1.19,0.86,0.72

A few values from the entries so far:
Under “CDH1-null viability vs mock (fraction of mock)”, BMP15 (GeneID 9210) is entered as 0.5
Under “parental viability vs mock (fraction of mock)”, DBF4 (GeneID 10926) has 0.74

Next records follow:
target,CDH1-null / parental viability ratio,CDH1-null viability vs mock (fraction of mock),parental viability vs mock (fraction of mock)
GNG5 (GeneID 2787),0.79,0.63,0.8
WTAP (GeneID 9589),0.71,0.54,0.76
DDX56 (GeneID 54606),1.05,0.86,0.82
ANKZF1 (GeneID 55139),0.87,0.54,0.62
RNF169 (GeneID 254225),0.79,0.67,0.85
TRPC4 (GeneID 7223),1.19,0.87,0.73
CCDC22 (GeneID 28952),0.92,0.56,0.61
S100PBP (GeneID 64766),1.1,0.46,0.42
OR6B3 (GeneID 150681),1.07,0.62,0.58
SPRY3 (GeneID 10251),0.67,0.44,0.66
TREM2 (GeneID 54209),0.73,0.44,0.6
DDIT4L (GeneID 115265),1,0.7,0.7
PADI2 (GeneID 11240),0.89,0.68,0.76
MZF1 (GeneID 7593),1.04,0.86,0.83
